{"sequences": {"note": "Sequences of proteins named here, by UniProt entry; tags and fusion partners are left off.", "UniProt Q8NER1, whole entry, looked up": "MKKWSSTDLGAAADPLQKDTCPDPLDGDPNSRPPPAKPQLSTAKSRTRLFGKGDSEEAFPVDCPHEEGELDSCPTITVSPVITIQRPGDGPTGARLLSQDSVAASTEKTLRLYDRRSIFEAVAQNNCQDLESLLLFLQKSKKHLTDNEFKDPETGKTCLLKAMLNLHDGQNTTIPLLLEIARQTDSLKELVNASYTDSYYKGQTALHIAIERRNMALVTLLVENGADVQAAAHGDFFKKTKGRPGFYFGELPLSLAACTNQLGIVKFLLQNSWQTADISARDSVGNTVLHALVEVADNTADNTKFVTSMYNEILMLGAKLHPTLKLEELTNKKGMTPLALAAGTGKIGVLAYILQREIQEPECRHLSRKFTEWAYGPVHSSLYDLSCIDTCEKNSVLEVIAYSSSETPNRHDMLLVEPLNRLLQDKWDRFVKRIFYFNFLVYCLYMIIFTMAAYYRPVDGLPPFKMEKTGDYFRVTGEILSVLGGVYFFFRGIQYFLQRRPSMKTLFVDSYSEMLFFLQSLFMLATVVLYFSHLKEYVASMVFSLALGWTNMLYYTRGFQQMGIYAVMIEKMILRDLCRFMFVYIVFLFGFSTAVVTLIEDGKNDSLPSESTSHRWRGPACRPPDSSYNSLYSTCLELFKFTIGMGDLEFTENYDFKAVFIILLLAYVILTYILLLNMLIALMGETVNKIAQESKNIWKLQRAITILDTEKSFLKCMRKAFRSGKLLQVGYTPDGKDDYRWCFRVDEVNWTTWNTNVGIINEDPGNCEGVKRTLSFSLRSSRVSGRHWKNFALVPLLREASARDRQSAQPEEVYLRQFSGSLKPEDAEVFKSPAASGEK"}, "source": "PubChem BioAssay AID540275", "about": "(National Center for Advancing Translational Sciences (NCATS), 2011)", "note": "The whole screen tested about 320,000 compounds, of which about 620 (0.19%) were called active. The shares of active, inactive and inconclusive entries below differ from those in the screen. No stated cut-off is given here; in the data, active means activation above about 80%; inconclusive means between about 30% and that limit; inactive means weaker than that."}
{"molecular_target": "Transient receptor potential cation channel subfamily V member 1 (Homo sapiens) (UniProt Q8NER1)", "test": "HTS Assay for Compounds that Act as Agonists of the Vanilloid Receptor 1; further: 0% is about no effect", "conditions": "TRPV1-expressing cells, Fluo-8 calcium influx, agonist mode; at 8.33 µM, active compounds read high", "in_short": "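Cells expressing TRPV1 were dye-loaded with Fluo-8 and read kinetically: 10 s baseline, 3 min after compound (agonist portion), then 2 min after EC20 capsaicin (allosteric enhancer portion). Calcium-bound dye fluorescence at 480/520 nm.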"}
{"smiles": "NC(=O)CC(c1ccccc1)c1ccc2c(c1)OCO2", "note": "(configuration not stated)", "activation": "inactive: 0.996%"}
{"smiles": "O=C(CN1C(=O)C2(OCCO2)c2ccccc21)c1ccc(Br)cc1", "activation": "inactive: -1.57%"}
{"smiles": "CCCCn1nc(C(=O)NC2=NCCS2)c2ccccc2c1=O", "activation": "inconclusive: 30.6%"}
{"smiles": "O=C(c1ccccn1)N1CCN(c2ccc(C(F)(F)F)cn2)CC1", "activation": "inconclusive: 53.4%"}
{"smiles": "O=C(N/N=C/c1ccc(F)cc1)c1ccc(Br)cc1", "activation": "inconclusive: 51.8%"}
{"smiles": "COc1cc(C)nc(N(Cc2ccccc2)S(=O)(=O)c2ccccc2)n1", "activation": "inactive: 1.39%"}
{"smiles": "Cc1cccc(CS(=O)(=O)c2ncc(Cl)c(C(=O)Nc3nnc(C(C)C)s3)n2)c1", "activation": "inactive: 4.19%"}
{"smiles": "CCc1cc(SC#N)cc(CC)c1NC(=O)CCl", "activation": "inactive: -0.918%"}
{"smiles": "O=C(CCN1CCOCC1)N1c2ccccc2Sc2ccc(Cl)cc21", "activation": "inactive: 17.9%"}
{"smiles": "CCN(CC(=O)Nc1cc(Cl)ccc1OC)CC(=O)NC1CCS(=O)(=O)C1", "note": "(configuration not stated)", "activation": "inactive: -0.0987%"}
{"smiles": "CCOc1ccccc1/C=C(/NC(=O)c1ccccc1)C(=O)N(CC)CC", "activation": "inconclusive: 38.6%"}
{"smiles": "Cc1c(Cl)cccc1NC(=S)N(CCCN1CCOCC1)Cc1cccs1", "activation": "inconclusive: 35.4%"}
{"smiles": "O=C(Nc1cccc(S(=O)(=O)N2CCCC2)c1)c1ccc2c(c1)OCO2", "activation": "inactive: -6.75%"}
{"smiles": "O=C(NC(=S)Nc1cccc(Cl)c1Cl)C1CC1", "activation": "inactive: 8.22%"}
{"smiles": "O=C(Nc1ccc(N2CCCCC2)cc1)c1ccccn1", "activation": "inconclusive: 68.1%"}
{"smiles": "Cc1ccc2nc(SCC3CCCCO3)[nH]c2c1", "note": "(configuration not stated)", "activation": "inconclusive: 37.2%"}
{"smiles": "COCc1c(C(=O)NC2CCCCCC2)oc2ccccc12", "activation": "inconclusive: 40.3%"}
{"smiles": "CC(=O)c1ccc(NC(=O)C(C)N(C)CC(=O)Nc2ccccc2Cl)cc1", "note": "(configuration not stated)", "activation": "inconclusive: 39.6%"}
{"smiles": "CCc1ccc(NC(=O)CN(C)S(=O)(=O)c2ccc3[nH]c(=O)oc3c2)cc1", "activation": "inconclusive: 66.1%"}
{"smiles": "COc1ccc(C(=O)NNC(=O)c2cccc(F)c2)cc1", "activation": "inconclusive: 31.3%"}
{"smiles": "Cc1ccc(-c2cc(C(=O)NCCCN3CCCC3)c3ccccc3n2)cc1C", "activation": "inactive: 3.18%"}
{"smiles": "Cc1cc(C(=O)N/N=C/c2cccc([N+](=O)[O-])c2)c(C)n1-c1ccccc1", "activation": "active: 89.3%"}
{"smiles": "Cc1onc(-c2c(F)cccc2Cl)c1C(=O)Nc1ccccc1N1CCOCC1", "activation": "inconclusive: 31.1%"}
{"smiles": "COc1ccc2c(c1)c(=O)oc1cc(OCC(=O)N3CCCC(C)C3)ccc12", "note": "(configuration not stated)", "activation": "inactive: -3.58%"}
{"smiles": "CCCCCCCCNC(=O)c1ccc(C)cc1", "activation": "inconclusive: 44.8%"}
{"smiles": "CC(C)OC(=O)CSc1nc(Cc2ccccc2)nc2ccccc12", "activation": "inconclusive: 47.6%"}
{"smiles": "CCn1c(SCC(=O)NNC(=S)Nc2ccc(C)cc2)nnc1-c1ccc(Cl)cc1", "activation": "inactive: -6.49%"}
{"smiles": "COc1ccc(CNC(=O)C2CCN(S(=O)(=O)c3cccc4nsnc34)CC2)cc1", "activation": "inactive: 1.77%"}
{"smiles": "O=C(/C=C/c1ccc(Cl)cc1)Nc1ccc(N2CCOCC2)cc1", "activation": "inconclusive: 32.8%"}
{"smiles": "CCC1Oc2ccc(C)cc2N(CC(=O)N(Cc2ccc3c(c2)OCO3)CC2CCCO2)C1=O", "note": "(configuration not stated)", "activation": "inconclusive: 33%"}
{"smiles": "O=C(CCc1ccccc1)NNC(=O)Nc1ccccc1", "activation": "inactive: -1.99%"}
{"smiles": "COc1ccccc1-n1cnnc1SCC(=O)NC1CCCCC1", "activation": "inactive: 0.815%"}
{"smiles": "CSc1ccc(Cl)c(C(=O)Nc2ccc(C)cn2)c1", "activation": "inconclusive: 42.3%"}
{"smiles": "O=C(N/N=C/c1ccc(Br)s1)c1cccs1", "activation": "inconclusive: 34.7%"}
{"smiles": "CC(Oc1ccc(Br)cc1)C(=O)NC1CCCCCC1", "note": "(configuration not stated)", "activation": "inconclusive: 57.4%"}
{"smiles": "CCCCOc1ccc(C(=O)N/C(=C/C=C/c2ccccc2)C(=O)O)cc1", "activation": "inactive: -3.68%"}
{"smiles": "O=C(CCCCl)NC(=S)Nc1cc(C(F)(F)F)ccc1N1CCOCC1", "activation": "inconclusive: 33.7%"}
{"smiles": "CN(c1ccc(F)cc1)S(=O)(=O)c1ccc(Cl)c(C(=O)Nc2ccncc2)c1", "activation": "inconclusive: 63.2%"}
{"smiles": "CCOC(=O)c1c(-c2ccc(C)o2)csc1NC(=O)CN1CCCCC1", "activation": "inconclusive: 31.9%"}
{"smiles": "CCCC(c1nnnn1Cc1cccs1)N1CCN(c2nc3ccccc3s2)CC1", "note": "(configuration not stated)", "activation": "inactive: -2.24%"}
{"smiles": "COc1cccc(C2CC(C(F)(F)F)n3ncc(C(=O)NCc4ccco4)c3N2)c1", "note": "(configuration not stated)", "activation": "inactive: 7.11%"}
{"smiles": "CCCCc1ccc(NC(=O)c2cnccn2)cc1", "activation": "inconclusive: 47%"}
{"smiles": "CC(C)c1ccc(OCC(=O)NCCO)cc1", "activation": "inconclusive: 36.3%"}
{"smiles": "COc1ccccc1N/C=C(\\C#N)c1nc2ccccc2[nH]1", "activation": "inconclusive: 35%"}
{"smiles": "Cc1ccc(N=Cc2c(O)c3ccccc3n(C)c2=O)cc1", "activation": "inconclusive: 43.3%"}
{"smiles": "Cc1nn(C)c(C(=O)Nc2ccc(Cl)c([N+](=O)[O-])c2)c1Cl", "activation": "inconclusive: 37.5%"}
{"smiles": "CCCC(=O)NNc1c2ccccc2nc2ccccc12", "activation": "inconclusive: 34.9%"}
{"smiles": "Cc1cc(Cl)ccc1C(=O)C1CCCN(C(=O)c2cc(C(C)C)no2)C1", "note": "(configuration not stated)", "activation": "inconclusive: 55.8%"}
{"smiles": "CC1CCCC(NC(=O)CNC(=S)N(Cc2ccccc2)Cc2cccs2)C1C", "note": "(configuration not stated)", "activation": "inactive: 13.3%"}
{"smiles": "COc1ccc(CC(=O)Nc2sc3c(c2C#N)CC(C)(C)NC3(C)C)cc1OC", "activation": "inconclusive: 76.3%"}
{"smiles": "O=C(NCCOc1ccccc1)c1ccc2c(c1)OCO2", "activation": "inactive: 22.3%"}
{"smiles": "COc1ccccc1CNC(=S)Nc1ccc(F)cc1", "activation": "inactive: 19.4%"}
{"smiles": "CN(C)S(=O)(=O)c1ccc(NC(=O)c2ccc(Br)o2)cc1", "activation": "inconclusive: 50.3%"}
{"smiles": "CCc1sc(C(=O)N2CCCN(C)CC2)cc1Br", "activation": "inactive: -0.153%"}
{"smiles": "CCOC(=O)C1(CC2CC2)CCN(Cc2ccc3cccc(F)c3n2)CC1", "activation": "inconclusive: 37%"}
{"smiles": "CCCN(CC(=O)Nc1ccccc1C)C(=O)COc1ccc2c(c1)CCC2", "activation": "inconclusive: 36.3%"}
{"smiles": "O=C(NCCN1CCN(c2cccc(Cl)c2)CC1)c1ccc(CSc2nc3ccncc3[nH]2)cc1", "activation": "inactive: 0.328%"}
{"smiles": "Cc1ccc(C)c(-n2cc(CNCCCn3cccn3)c(-c3ccccc3)n2)c1", "activation": "inactive: 19.6%"}
{"smiles": "Cc1ccc(-c2nn(-c3ccc(F)cc3)cc2C(=O)NCC(c2cccs2)N2CCOCC2)cc1", "note": "(configuration not stated)", "activation": "inconclusive: 37.2%"}
{"smiles": "COc1ccc(C(CC(=O)O)NC(=O)C2CCCCC2)cc1", "note": "(configuration not stated)", "activation": "inactive: -4.48%"}
{"smiles": "COc1ccc(NC(=O)N2CCC(Cc3ccccc3)CC2)cc1", "activation": "inconclusive: 44.5%"}
{"smiles": "O=C(Nc1ccc2nsnc2c1)c1ccc2c(c1)OCO2", "activation": "inconclusive: 68%"}
{"smiles": "CCOC(=O)c1nnn(CC(=O)N2N=C(c3cccc4ccccc34)CC2c2ccccc2)c1C(=O)OCC", "note": "(configuration not stated)", "activation": "inactive: -0.489%"}
{"smiles": "COc1ccc(-c2cc(C(F)(F)F)nc(N3CCN(C)CC3)n2)cc1", "activation": "inactive: 16.4%"}
{"smiles": "Cc1cc(F)ccc1Oc1cc(NN2CCCCC2)c([N+](=O)[O-])cc1[N+](=O)[O-]", "activation": "inconclusive: 40.6%"}
{"smiles": "O=C(NCc1ccccc1)c1cccc(COc2ccccc2Cl)c1", "activation": "inactive: 9.72%"}
{"smiles": "O=C(O)CCCCCNC(=O)OCC1c2ccccc2-c2ccccc21", "activation": "inactive: 1.85%"}
{"smiles": "COc1ccc(-c2cn(-c3ccccc3)c(=S)[nH]2)cc1OC", "activation": "inactive: -0.961%"}
{"smiles": "COCC(C)NC(C(=O)Nc1ccc(C)c(Cl)c1)c1ccccc1", "note": "(configuration not stated)", "activation": "inconclusive: 33.3%"}
{"smiles": "COC(=O)c1ccc(NC(=O)Nc2ccc(F)c(Cl)c2)cc1", "activation": "inactive: 11.2%"}
{"smiles": "Cc1ccc(NC(=O)c2cc(N3CCOCC3)nc3ccccc23)cc1", "activation": "inconclusive: 68.5%"}
{"smiles": "Cc1cc(OCc2cc(C(=O)NCCN3CCCCC3CO)no2)cc(C)c1Cl", "note": "(configuration not stated)", "activation": "inactive: 2.85%"}
{"smiles": "C=CCn1c(N)cc(=O)nc1SCC(=O)Nc1ccc(C)cc1", "activation": "inactive: 2.64%"}
{"smiles": "CCCNC(=O)Nc1ccc(C(F)(F)F)cc1", "activation": "inconclusive: 71.8%"}
{"smiles": "Cc1ccc(-n2nc(C)c3c(C)c(CCC(=O)NCC4CCCO4)c(=O)n(C)c32)cc1", "note": "(configuration not stated)", "activation": "inconclusive: 71.2%"}
{"smiles": "O=C(Nc1cccc(S(=O)(=O)N2CCCCC2)c1)c1ccc2c(c1)OCO2", "activation": "inconclusive: 36.4%"}
{"smiles": "O=C(NC(=S)Nc1nc(-c2ccc(Cl)cc2)cs1)c1cccs1", "activation": "inactive: -4.28%"}
{"smiles": "CCOC(=O)/C=C/[C@H]1CC(c2ccccc2)(c2ccccc2)CO1", "activation": "inconclusive: 30.9%"}
{"smiles": "COc1cn(-c2ccccc2)nc1C(=O)Nc1ccc(C)cc1Cl", "activation": "inconclusive: 44.5%"}
{"smiles": "COC(=O)C1=C(C)N(c2ccccc2)/C(=C/c2ccco2)C1=O", "activation": "inconclusive: 39.8%"}
{"smiles": "Nn1c(Cc2ccccc2)nc2cc(Cl)ccc2c1=O", "activation": "inactive: 0.831%"}
{"smiles": "COc1ccc(/C=C/C(=O)NC(C)CCc2ccccc2)cc1OC", "note": "(configuration not stated)", "activation": "inconclusive: 47.8%"}
{"smiles": "Cc1ccccc1OCC(=O)N1CCC2(CC1)CC(=O)c1ccccc1O2", "activation": "inconclusive: 44.4%"}
{"smiles": "CCCC(=O)Nc1ccc2oc(-c3ccc(OC)c(Br)c3)nc2c1", "activation": "inactive: 0.755%"}
{"smiles": "COc1cc(C(=O)NC(=S)N(CCc2ccccc2)CCc2ccccc2)cc(OC)c1OC", "activation": "inactive: 2.67%"}
{"smiles": "COc1ccc(C(=O)Nc2ccc(Cl)cc2C(=O)N2CCCC(C)C2)cc1", "note": "(configuration not stated)", "activation": "inconclusive: 35.2%"}
{"smiles": "CC(c1ccco1)N(C(=O)COc1ccc(Cl)cc1Cl)c1ccccn1", "note": "(configuration not stated)", "activation": "inactive: 4.48%"}
{"smiles": "COc1ccc(-c2sc3ccc(OC)cc3c2C#Cc2ccccn2)cc1", "activation": "inconclusive: 42%"}
{"smiles": "O=C(Nc1ccc2oc(=O)ccc2c1)c1ccc2ccccc2c1", "activation": "inconclusive: 61.9%"}
{"smiles": "COc1ccccc1-n1cc(C(=O)N2CCCC(CO)(Cc3ccccc3C)C2)cn1", "note": "(configuration not stated)", "activation": "inconclusive: 52.7%"}
{"smiles": "CN(C)Cc1c(O)ccc2cc(-c3nc4ccccc4n3C)c(=O)oc12", "activation": "inactive: 8.5%"}
{"smiles": "CCC(C)NC(=O)CSc1nnc(-c2cc(-c3cccs3)nc3ccccc23)o1", "note": "(configuration not stated)", "activation": "inactive: -3.06%"}
